# PubChem BioAssay AID493014 (National Center for Advancing Translational Sciences (NCATS), 2011)
# The campaign covered roughly 340,000 compounds. About 170 (0.05%) were called active. The inconclusive results got no clear call from the source; some entries with a clear call stand among them for comparison. The call rests on the fitted dose curve; in most records, active means well fitted inhibition curve with a large enough effect in the signal ratio, with a control signal flat (not every such curve was filed as active); inconclusive means small, poorly fitted or top-dose-only effect, or effect the other way, or a change in a side signal; inactive means flat fitted curve, though single readings scatter; the % refers to the signal ratio. Potencies beside an inconclusive call are fits to weak or partial responses and may not hold up.
# Test: qHTS Assay to Find Inhibitors of Chronic Active B-Cell Receptor Signaling;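 on activity change, negative = inhibition: plate controls were basal doxycycline-induced cells for no effect and cells given 10 µM MG132 for full effect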
# Settings: ABC-DLBCL IkBa-CBG/CBR reporter, luminescence ratio (green luciferase fused to IkBa over red control in TMD8 lymphoma cells), 4 h; activity change, negative = inhibition: at 46.1 µM (top of the series)
# How it was run: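 TMD8 ABC-DLBCL cells carrying doxycycline-inducible green luciferase fused to IkappaBalpha plus unfused red luciferase were exposed to compounds (up to 46 uM) for 4 hrs at 37C. Activity came from the overlap-corrected green/red luminescence ratio.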
# Potency means the concentration at half of the fitted maximal effect.
Compound,"activity change, negative = inhibition",Potency
Cn1c(SCC(=O)N2CCN(c3ccccc3)CC2)nnc1-c1ccco1,inactive: 0.034%,–
CCn1c2ccccc2c2cc(NC(=O)CSc3nnc(C4CC4)n3Cc3ccco3)ccc21,–,"inconclusive: 3.26 µM [cytotoxic, partial curve, poor fit]"
CCN(CC)C(=O)c1sc(N)c(C(=O)OC(C)C)c1C,–,"inconclusive: 0.326 µM [rising, full curve]"
N/C(=N\OC(=O)c1ccc(Cl)cc1)c1ccccn1,–,"inconclusive: 31.6 µM [rising, single point]"
COCCN(C(=O)COC(=O)c1cc(C)n(-c2ccccc2)c1C)c1c(N)n(Cc2ccccc2)c(=O)[nH]c1=O,inconclusive: 9.34%,–
CC(C(=O)N1CCc2ccccc2C1)N1C(=O)c2ccccc2C1=O (stereo not drawn),–,"inconclusive: 17.8 µM [falling, single point]"
CCn1c(SCC(=O)Nc2ccc(OC)c(OC)c2)nc2c(c1=O)SCC2,inconclusive: -11.7%,–
COc1ccc(/C=C2\SC(=S)N(CC(=O)OCC(=O)Nc3cc(Cl)cc(Cl)c3)C2=O)cc1,inactive: -1.41%,–
O=C(Cc1cccs1)Nc1ccc(Cl)cc1,inconclusive: 4.24%,–
CCOC(=O)N1CCC(NC(=O)c2ccc(Cl)cc2)CC1,inactive: 5.8%,–
CCCCC(=O)Nc1ccc(NC(=O)C(C)C)cn1,inconclusive: 4.48%,–
COC(=O)CSc1nc(C)cc(Oc2ccccc2)n1,inconclusive: 13%,–
CCN(C(=O)COC(=O)CNC(=O)c1ccc2ccccc2c1)C1CCS(=O)(=O)C1 (stereo not drawn),–,"inconclusive: 14.1 µM [falling, partial curve, poor fit]"
S=c1[nH]nc(COc2ccccc2)n1/N=C/c1ccc(Br)cc1,inactive: -1.53%,–
COc1cc(C(c2sc3nc(C)nn3c2O)N2CCC3(CC2)OCCO3)cc(OC)c1OC (stereo not drawn),inconclusive: -6.86%,–
Cc1[nH]c2ccc(F)cc2c1CCN(Cc1ccncc1)C(=S)Nc1cccc(F)c1,inconclusive: -10.6%,–
Cn1cccc1/C=N\NC(=O)c1cncc(Br)c1,inconclusive: -5.64%,–
CCC(=O)c1ccc(N2CCN(C(=O)c3cccc(F)c3)CC2)c(F)c1,inactive: -16.7%,–
COc1ccccc1CNS(=O)(=O)c1ccc2c(c1)CC(C)N2C(=O)C1CCC1 (stereo not drawn),inconclusive: 2.23%,–
Cc1c(C(=O)NCCCN2CCCC2=O)oc2ccc(S(=O)(=O)N3CCOCC3)cc12,inconclusive: -13.3%,–
COCCOCC(O)CN1CCN(c2ccccc2)CC1 (stereo not drawn),inconclusive: -2.42%,–
Cc1nc(NC(=O)c2ccccc2O)sc1C,–,"inconclusive: 4.47 µM [falling, partial curve]"
CCCCn1c(SCc2nc3ccccc3s2)nc2cc(S(N)(=O)=O)ccc21,inactive: -2.46%,–
Cn1c(=O)c2c(O)c(C=Nc3ccc(F)cc3)c(=O)n(C)c2n(C)c1=O,inconclusive: -5.54%,–
OC(CNCCc1ccccc1)COc1ccc(OCC(O)CNCCc2ccccc2)cc1 (stereo not drawn),–,"inconclusive: 12.6 µM [falling, single point]"
CCNC(=O)COc1ccc(F)cc1C(=O)c1cnn(-c2ccccc2)c1,–,"inconclusive: 20 µM [falling, single point]"

# Copied from the entries so far, five compounds:
Compound,"activity change, negative = inhibition",Potency
COc1ccccc1CNS(=O)(=O)c1ccc2c(c1)CC(C)N2C(=O)C1CCC1 (stereo not drawn),inconclusive: 2.23%,–
Cc1c(C(=O)NCCCN2CCCC2=O)oc2ccc(S(=O)(=O)N3CCOCC3)cc12,inconclusive: -13.3%,–
COCCOCC(O)CN1CCN(c2ccccc2)CC1 (stereo not drawn),inconclusive: -2.42%,–
Cc1nc(NC(=O)c2ccccc2O)sc1C,–,"inconclusive: 4.47 µM [falling, partial curve]"
CCCCn1c(SCc2nc3ccccc3s2)nc2cc(S(N)(=O)=O)ccc21,inactive: -2.46%,–

# Remaining list, next part:

Compound,"activity change, negative = inhibition",Potency
CCN(CC(=O)NCc1cccs1)C(=O)CCOc1ccccc1,inconclusive: 1.67%,–
Cc1ccc(CN2C(=O)N/C(=C\c3ccc(-c4ccc(C(=O)O)cc4C)o3)C2=O)cc1,inactive: 3.66%,–
CC(C)NC(=O)C1CCN(C(=O)c2cc3sccc3n2Cc2ccc(F)cc2)CC1,inactive: 1.4%,–
COc1ccc(C2c3c(ncn(CCCO)c3=N)Oc3ccc4ccccc4c32)cc1 (stereo not drawn),inconclusive: 11.4%,–
Cc1ccc2c(c1)COc1c3ccc(C(=O)O)cc3nn1-2,–,"inconclusive: 10 µM [falling, partial curve]"
CCOC(=O)c1c(C)[nH]c(C)c1C(=O)COC(=O)c1ccccc1O,inactive: -17.6%,–
O=C(Nc1ccc(N2CCOCC2)c(F)c1)c1cccs1,–,"inconclusive: 28.2 µM [falling, single point]"
Cc1oc(-c2cccs2)nc1CN1CCN(CC(C)C)C(CCO)C1 (stereo not drawn),inactive: -3.81%,–
O=C(O)/C(=C\c1cccc(F)c1)c1ccc(S(=O)(=O)N2CCCCC2)s1,–,"inconclusive: 18.4 µM [rising, partial curve, poor fit]"
CC(C)(C)OC(=O)NCc1ccc(CNC(=O)c2[nH]cnc2C(=O)NCC(=O)OCc2ccccc2)cc1,–,"inconclusive: 35.5 µM [falling, single point]"
O=C(CSc1nc2ccccc2c(=O)n1-c1ccc(Cl)cc1)c1ccco1,–,"inconclusive: 11.2 µM [falling, partial curve, poor fit]"
CCOP(=O)(OCC)C(NC(=O)Nc1ccc(C)c(Cl)c1)c1ccccc1 (stereo not drawn),inactive: 3.43%,–
Cc1cc(N)n(-c2ccc(C)c(C)c2)n1,–,"inconclusive: 31.6 µM [rising, single point]"
O=C(Nc1ccccc1)c1ccc2ccccc2n1,–,"inconclusive: 22.4 µM [falling, single point]"
Cc1cc(S(=O)(=O)NCC(C)C)ccc1OCC(=O)NCc1ccco1,inconclusive: 5.57%,–
COc1ccc(-n2c(N)c(C(=O)NCc3ccco3)c3nc4ccccc4nc32)cc1,inconclusive: 1.42%,–
O=C(CCc1ccccc1)NC(=S)Nc1ccc2c(c1)C(=O)OC2,inconclusive: 0.899%,–
CN(C(=O)CSc1nc2c(c(=O)[nH]1)CCC2)c1ccccc1,inconclusive: 29.4%,–
CCOc1ccc(N(CC)C(=O)COc2cc(=O)n(CC)c3ccccc23)cc1,–,"inconclusive: 9.2 µM [falling, partial curve, poor fit]"
Cc1cc(N2C(=O)C(O)=C(C(=O)c3ccc(C)o3)C2c2ccc([N+](=O)[O-])cc2)no1 (stereo not drawn),inactive: 0.371%,–
CC1CCc2sc(C(=O)NC(C)C3CCCO3)cc2C1 (stereo not drawn),–,"inconclusive: 11.2 µM [falling, partial curve]"
COc1ccc(-c2cccc(-c3nc4ccc(Cl)cn4c3NC3CCCCC3)c2)cc1,inactive: 3.76%,–
O=C(NC1CCCCC1)c1cc2nc(-c3ccco3)cc(C(F)(F)F)n2n1,inactive: -4.77%,–
Cc1ccc(CN(C)Cc2cc(=O)oc3cc(C)c(Cl)cc23)cc1,inconclusive: 3.44%,–
COc1ccccc1-c1ccc(=O)n(CC(=O)Nc2ccc(C(=O)N3CCCC3)cc2)n1,inconclusive: -0.973%,–
Cc1c(OCC(F)(F)F)ccnc1CS(=O)c1nc2ccccc2[nH]1 (stereo not drawn),inconclusive: 0.58%,–

Compound,"activity change, negative = inhibition",Potency
CCOc1ccc2nc(N(CCN(CC)CC)C(=O)/C=C/c3cccs3)sc2c1,–,"inconclusive: 35.5 µM [falling, single point]"
CCc1ccccc1NC1=CC(=O)CC(C)(C)C1,inconclusive: 5.27%,–
CCN(CC)S(=O)(=O)c1ccc(NC(=O)C2c3ccccc3Oc3ccccc32)cc1,inconclusive: 4.37%,–
COc1ccc(S(=O)(=O)NCCc2sc3nc(-c4ccc(C)cc4)nn3c2C)cc1F,inconclusive: 4.18%,–
COc1cccc2sc(NN)nc12,–,"inconclusive: 12.6 µM [falling, partial curve, poor fit]"
COc1ccc(Cn2cnc3c4cc(F)ccc4n(C)c3c2=O)cc1,inactive: -8.5%,–
O=C(c1cccc(F)c1)N1CCN(c2ccc([N+](=O)[O-])c3cccnc23)CC1,inconclusive: 2.52%,–
COc1ccccc1NC(=O)CSc1nc2ccccc2cc1Cc1ccccc1,–,"inconclusive: 3.55 µM [falling, full curve, poor fit]"
CC(C)Nc1nc(Cl)nc(NC2CCCCC2)n1,inconclusive: 7.38%,–
O=C(Nc1ccc2[nH]ncc2c1)c1cccc(F)c1,–,"inconclusive: 20 µM [falling, single point]"
COc1ccc(-c2cc(OC)c3c(C)oc(C)c3c(=O)c2)cc1OC,inconclusive: -0.251%,–
CNC(=O)c1c(NC(=O)c2ccc(S(=O)(=O)N3CCCC3)cc2)sc2c1CCN(C(C)C)C2,inconclusive: -6.19%,–
CCCCN(CC)C(=O)c1ccc2c(c1)OCO2,inconclusive: 3.93%,–
Cc1ccccc1-n1c(SCc2ccccn2)nc2n[nH]c(C)c2c1=N,–,"inconclusive: 20.6 µM [falling, single point]"
CC1(C)Cc2c(ccc3ccccc23)/C(=C/C#N)N1,inconclusive: -0.39%,–
CC(/C=N/NC(=O)CSc1nnc(SCc2ccccc2)s1)=C\c1ccco1,inactive: -0.274%,–
Cc1ccc(C2CC(=O)Nc3cc4c(cc32)OCO4)o1 (stereo not drawn),–,"inconclusive: 14.6 µM [falling, single point]"
CC(=O)Nc1ccc(NC(=O)COC(=O)c2c(-c3ccccc3)noc2C)cc1,–,"inconclusive: 13 µM [falling, partial curve]"
CCOC(=O)C1CCCN(C(=O)CN2CCN(Cc3ccc(Cl)cc3)C2=O)C1 (stereo not drawn),inconclusive: -4.9%,–
Cc1cccc2sc(NNC(=O)c3ccc(S(=O)(=O)N4CCc5ccccc5C4)cc3)nc12,inactive: -2.81%,–
Cc1ccc(S(=O)(=O)NCCCN(C)C)cc1,inconclusive: -0.0103%,–
CCSc1cc(N2CC(C)OC(C)C2)nc(-c2ccccc2Cl)n1 (stereo not drawn),–,"inconclusive: 8.2 µM [rising, partial curve, poor fit]"
Cc1ccn2c(NCc3ccccc3)c(-c3cccs3)nc2c1,inactive: -2.12%,–
O=C1c2ccccc2NC(c2ccc(-c3ccc(C(F)(F)F)cc3)o2)N1O (stereo not drawn),inconclusive: -10.3%,–
O=C(c1ccc(Cl)cc1)N1N=C(c2ccccn2)CC1(O)C(F)(F)F (stereo not drawn),–,"inconclusive: 20 µM [falling, partial curve]"
CC(C)N1CCc2c(sc(NC(=O)c3cc4cc([N+](=O)[O-])ccc4s3)c2C(N)=O)C1,inconclusive: 22.5%,–

# Entries of single compounds, quoted from the list. Order of values: activity change, negative = inhibition | Potency
# `CC(C)N1CCc2c(sc(NC(=O)c3cc4cc([N+](=O)[O-])ccc4s3)c2C(N)=O)C1` is listed as inconclusive: 22.5% | –
# `CNC(=O)c1c(NC(=O)c2ccc(S(=O)(=O)N3CCCC3)cc2)sc2c1CCN(C(C)C)C2` is listed as inconclusive: -6.19% | –
